Data: paper PMC6733853
No constants are given. Whether binding was seen depends on the method and setting. In cells and extracts the contact can be indirect. Some binding calls cover weakened binding; strength is not graded here.

Sequences of proteins named here, by UniProt entry; tags and fusion partners are left off.
UniProt P35372: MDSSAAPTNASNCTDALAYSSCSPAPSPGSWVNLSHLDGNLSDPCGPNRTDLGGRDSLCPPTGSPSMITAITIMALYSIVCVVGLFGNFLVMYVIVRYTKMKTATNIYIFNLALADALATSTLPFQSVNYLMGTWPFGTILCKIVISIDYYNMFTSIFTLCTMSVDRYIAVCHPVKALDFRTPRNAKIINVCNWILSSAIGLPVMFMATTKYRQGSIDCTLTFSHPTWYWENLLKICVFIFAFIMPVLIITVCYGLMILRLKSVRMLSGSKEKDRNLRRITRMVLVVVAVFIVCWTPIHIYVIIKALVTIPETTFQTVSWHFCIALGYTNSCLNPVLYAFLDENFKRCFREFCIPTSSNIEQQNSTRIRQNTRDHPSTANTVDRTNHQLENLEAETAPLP
UniProt P49407: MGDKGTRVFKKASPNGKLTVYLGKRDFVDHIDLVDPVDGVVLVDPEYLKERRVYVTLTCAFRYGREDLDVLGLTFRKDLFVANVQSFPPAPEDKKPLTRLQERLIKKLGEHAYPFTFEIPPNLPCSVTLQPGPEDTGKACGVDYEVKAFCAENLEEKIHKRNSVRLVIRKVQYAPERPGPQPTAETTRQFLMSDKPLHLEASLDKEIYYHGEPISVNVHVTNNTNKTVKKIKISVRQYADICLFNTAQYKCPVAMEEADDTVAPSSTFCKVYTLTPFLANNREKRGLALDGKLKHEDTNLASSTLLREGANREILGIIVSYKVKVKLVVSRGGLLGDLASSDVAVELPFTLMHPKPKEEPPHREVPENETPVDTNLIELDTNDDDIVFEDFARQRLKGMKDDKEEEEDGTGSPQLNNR
UniProt P32121: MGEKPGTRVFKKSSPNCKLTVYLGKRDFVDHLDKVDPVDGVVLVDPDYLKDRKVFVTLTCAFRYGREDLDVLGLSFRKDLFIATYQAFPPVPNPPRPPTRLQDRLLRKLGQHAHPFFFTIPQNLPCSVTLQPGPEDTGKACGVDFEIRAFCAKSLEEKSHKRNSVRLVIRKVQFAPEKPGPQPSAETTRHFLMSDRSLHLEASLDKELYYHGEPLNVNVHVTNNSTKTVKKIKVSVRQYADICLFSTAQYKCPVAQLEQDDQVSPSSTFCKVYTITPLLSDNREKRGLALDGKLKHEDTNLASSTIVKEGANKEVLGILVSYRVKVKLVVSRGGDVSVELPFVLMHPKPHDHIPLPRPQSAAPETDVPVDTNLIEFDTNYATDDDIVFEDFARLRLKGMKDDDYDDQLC

Molecular target: sp-FLAG-MOR-GFP10 (human mu opioid receptor, MOR1) (human) (UniProt P35372)
Experiment: FRET or BRET; BRET2 in living HEK 293 cells co-transfected with sp-FLAG-hMOR-GFP10 and βarr1- or βarr2-RlucII (βarr2 also with GRK2, GRK5 or GRK6); agonists for 10 min in Tyrode's solution, read at 37 °C; ligands of cluster #3 (full agonists)

**Q.** Which binding does the source give for “β-arrestin1-RlucII (from UniProt P49407 1-418)” here?
**A.** binds

**Q.** “β-arrestin2-RlucII (from UniProt P32121 1-409)” was tested. Which binding did it give?
**A.** binds
